The assay in a line: qHTS Assay for Modulators of Lamin A Splicing. The note with it: HeLa LMNA splicing GFP/RFP minigene ratio, 48 h. Summed up:
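Read-out is the ratio of GFP to DsRed2 object intensity, acquired by 488 nm laser-scanning cytometry on HeLa lamin A-EGFP minigene reporter cells. Compound incubation 48 hrs at 37 °C in Opti-MEM with 2% FBS; DMSO 0.5% final.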
(In general: In qHTS, concentration-response curves come from the screen itself.)

The mark [1] stands for this setting: measured here: RFP viability control channel.
Setting [2] is: measured here: GFP splicing reporter channel.

This is one part of the list. Further columns of the screen follow, without active or inactive calls. The list favours compounds with an active or inconclusive main result. Potencies come from curve fits of mixed quality, noted in brackets.

As usually defined, the AC50 is the concentration giving half of the maximal activity seen. As for `Cc1onc(-c2c(Cl)cccc2Cl)c1C(=O)N/N=C(\N)COc1ccc(Cl)cc1`, the AC50 under setting [1] is 5.01 µM [rising, full curve].

For `CN(C)Cc1nc2c(c(=O)[nH]1)C1(CCCCC1)Cc1ccccc1-2`, the AC50 under setting [1] was 6.31 µM [falling, partial curve, poor fit].

Take `COc1ccc(OC)c(CNC(=O)CCc2nc(-c3cccs3)no2)c1`: the AC50 under setting [2] was 5.62 µM [rising, single point]. Take `CCOCCCNC(=S)N(Cc1ccco1)Cc1cc2cc3c(cc2[nH]c1=O)OCCO3`: the AC50 by setting is: under setting [2], 7.08 µM [falling, partial curve, poor fit]; under setting [1], 3.55 µM [falling, partial curve]. In the case of `COc1cccc(C(=O)Nc2cc(-c3cn4cccnc4n3)ccc2C)c1`, the AC50 runs as follows: under setting [2], 6.31 µM [rising, full curve]; under setting [1], 7.08 µM [rising, full curve, poor fit]. With `N#Cc1nc(COc2ccccc2Cl)oc1NCc1ccc(F)cc1`, the AC50 is, setting by setting: under setting [2], 35.5 µM [rising, single point]; under setting [1], 31.6 µM [rising, single point].

Consider `O=C1C2C3C=CC(C2C(=O)N1c1ccccc1O)C1C2C(=O)N(c4ccccc4O)C(=O)C2C31` (stereo not given), for which the AC50 under setting [2] is 0.0447 µM [falling, full curve, poor fit].

`C/C(=N\NC(=O)COc1ccccc1)c1cccs1`: the AC50 under setting [2] is 12.6 µM [rising, single point].

On to `Cc1ccc2c(=O)oc(N(C)C)nc2c1`, for which the AC50 runs as follows: under setting [2], 0.891 µM [falling, full curve, poor fit]; under setting [1], 0.891 µM [falling, full curve]. On to `C=COCCNC(=O)C1CC(=O)N(c2ccc(C)cc2)C1` (stereo not given), for which, under setting [1], the AC50 is 3.98 µM [falling, single point].

In the case of `Cc1cccc(-c2nnn3c2nc(NCCc2ccc(S(N)(=O)=O)cc2)c2ccccc23)c1`, the AC50 under setting [1] was 0.0224 µM [rising, full curve, poor fit].

As to `CCOC(=O)Cc1csc(SCC(=O)c2c(N)n(CC(C)C)c(=O)n(C)c2=O)n1`, the AC50 under setting [2] is 5.01 µM [rising, partial curve]. Consider `COC(=O)c1cc(OC)c(OC)cc1NCC(=O)Nc1ccc(OC)c(OC)c1`, for which the AC50 runs as follows: under setting [2], 22.4 µM [rising, single point]; under setting [1], 0.447 µM [rising, single point]. In the case of `Cc1ccc2c(c1)C=CC(C#N)N2C(=O)c1ccccc1` (stereo not given), the AC50 was 2.51 µM [rising, single point] under setting [2] and 3.16 µM [rising, partial curve] under setting [1]. As for `C#C[C@@]1(OC(C)=O)CC[C@@H]2[C@@H]3CCC4=C[C@@H](OC(C)=O)CC[C@H]4[C@H]3CC[C@]21C`, the AC50 under setting [2] is 14.1 µM [falling, single point] and the AC50 under setting [1] was 10 µM [falling, single point].

On to `Cc1cc(Cl)ccc1OCC(=O)N1CCCN(C(=O)COc2ccc(Cl)cc2C)CC1`, for which the AC50 under setting [2] is 31.6 µM [rising, single point] and the concentration at half-maximal activity (AC50) under setting [1] was 31.6 µM [rising, single point]. On to `COc1ccc(N2CCN(C(=O)c3ccc(NS(=O)(=O)c4ccccc4)cc3)CC2)cc1`, for which the AC50 under setting [1] was 22.4 µM [rising, single point]. As to `O=C(N/N=C/c1ccccn1)c1cccc([N+](=O)[O-])c1`, the AC50 under setting [1] is 35.5 µM [rising, partial curve, poor fit]. For `Cc1ccc(NC(=O)CSc2nc3ccccc3nc2Cc2ccccc2)c(C)c1`, the AC50 reads like this: under setting [2], 0.0224 µM [rising, full curve, poor fit]; under setting [1], 10 µM [rising, partial curve, poor fit]. `Cc1cc(C(=O)COc2ncnc3sccc23)c(C)n1C1CC1`: the AC50 is 12.6 µM [falling, partial curve, poor fit] under setting [2] and 15.8 µM [falling, partial curve, poor fit] under setting [1].

As to `Cc1cc(NCCCN(C)C)n2nc(-c3cccs3)cc2n1`, the AC50 under setting [1] is 11.2 µM [rising, partial curve].

In the case of `Cc1ccc(CCNC(=O)Cn2ncc3c([nH]c4ccc(C)cc43)c2=O)cc1`, the AC50 under setting [2] was 0.0316 µM [falling, full curve, poor fit] and the AC50 under setting [1] is 0.02 µM [falling, full curve, poor fit]. For the compound `O=C(N/N=C/c1ccccn1)c1ccc(Br)cc1`, the AC50 is 31.6 µM [rising, single point] under setting [2] and 31.6 µM [rising, single point] under setting [1]. On to `CN(C)CCN(Cc1cc2cc3c(cc2[nH]c1=O)OCO3)C(=S)NCc1ccco1`, for which the AC50 reads like this: under setting [2], 0.0251 µM [falling, full curve, poor fit]; under setting [1], 0.0112 µM [falling, full curve, poor fit]. With `CN(C)S(=O)(=O)c1ccc(Nc2nc(C3CC3)nc3c2nnn3Cc2ccccc2Cl)cc1`, the half-maximal activity concentration (AC50) under setting [1] was 2.51 µM [rising, full curve]. Take `Cc1csc(NC(=O)CSc2nnc3ncccn23)n1`: the AC50 under setting [2] is 0.02 µM [rising, full curve, poor fit] and the AC50 under setting [1] was 5.62 µM [rising, partial curve]. Consider `CN(C)S(=O)(=O)c1ccc(C(=O)Nc2cc(S(=O)(=O)Nc3ccccc3Cl)ccc2N2CCCCC2)cc1`, for which the AC50 under setting [1] is 11.2 µM [rising, partial curve]. As to `Cc1ccc(C(=O)C(=S)N2CCOCC2)cc1`, the AC50 runs as follows: under setting [2], 0.02 µM [rising, full curve]; under setting [1], 0.00224 µM [rising, full curve, poor fit].

On to `CCCc1[nH]n(-c2ccc(F)cc2)c(=O)c1C=Nc1cccc(F)c1`, for which the AC50 under setting [1] was 5.62 µM [falling, single point]. Turning to `COc1cccc(C2C=C(c3ccc(OC)cc3OC)Nc3nnnn32)c1` (stereo not given), the AC50 under setting [1] was 12.6 µM [rising, partial curve]. As to `O=C(c1cccs1)N(CC1CCCO1)c1nc(-c2ccccc2)cs1` (stereo not given), the half-maximal activity concentration (AC50) reads like this: under setting [2], 11.2 µM [rising, partial curve]; under setting [1], 12.6 µM [rising, partial curve]. With `O=C(N/N=C/c1ccc(Sc2ccccn2)o1)c1cccc([N+](=O)[O-])c1`, the AC50 was 14.1 µM [rising, single point] under setting [2] and 10 µM [rising, single point] under setting [1]. Turning to `CC1(C)Cc2cccc(C(=O)NCc3ccco3)c2O1`, under setting [1], the AC50 is 35.5 µM [falling, partial curve, poor fit].
